From article PMC7425433
These are yes or no findings as the source states them, for the method shown. Binding seen in cells or lysates may run through a third protein. Binding calls can cover weak binding; strength is not graded here.

Biological target: T1, 17β-Hydroxysteroid dehydrogenase type 4 (HSD17B4), endogenous (human (endogenous in LNCaP)) (UniProt P51659)
T1 sequence: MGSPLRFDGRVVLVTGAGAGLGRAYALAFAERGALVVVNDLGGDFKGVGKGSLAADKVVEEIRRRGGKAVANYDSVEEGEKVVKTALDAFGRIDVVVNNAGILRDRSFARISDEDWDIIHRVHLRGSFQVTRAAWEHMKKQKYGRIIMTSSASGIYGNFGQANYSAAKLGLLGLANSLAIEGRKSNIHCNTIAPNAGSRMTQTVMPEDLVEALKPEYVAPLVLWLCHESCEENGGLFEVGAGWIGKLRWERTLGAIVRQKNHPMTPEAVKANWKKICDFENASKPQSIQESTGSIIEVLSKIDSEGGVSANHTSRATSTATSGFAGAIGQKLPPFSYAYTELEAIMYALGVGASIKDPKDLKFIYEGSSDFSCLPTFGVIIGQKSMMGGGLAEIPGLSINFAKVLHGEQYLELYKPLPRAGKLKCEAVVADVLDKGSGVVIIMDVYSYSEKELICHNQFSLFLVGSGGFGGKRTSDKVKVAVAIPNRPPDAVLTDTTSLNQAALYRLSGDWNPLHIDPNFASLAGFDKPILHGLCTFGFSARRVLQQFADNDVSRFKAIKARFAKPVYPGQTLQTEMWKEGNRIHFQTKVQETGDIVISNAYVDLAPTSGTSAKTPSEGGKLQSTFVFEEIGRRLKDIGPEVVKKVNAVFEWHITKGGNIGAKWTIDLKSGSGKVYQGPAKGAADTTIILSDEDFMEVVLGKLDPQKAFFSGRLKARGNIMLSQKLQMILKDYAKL
Experiment: co-IP; endogenous proteins from LNCaP lysate, detected by western blotting; cells cultured with or without DHT for 24 h (Figures 5C, 6F) or untreated (Figure 7D); lysis in 0.3% Nonidet P40, 150 mM NaCl, 50 mM Tris-HCl pH 7.5; which protein was precipitated is not told

SIRT3, endogenous (human (endogenous in LNCaP)) (enzyme)
binding: binds
